Source: patent publication US9102719B2, “SOGA polynucleotides and polypeptides and uses thereof” (University of North Carolina at Chapel Hill, priority 2009, dated 2015)
At least one structure is not confirmed: it was looked up by name or label, or the drawing left a doubt.

What was measured:
SOGA = type: cell-based, mouse; details: 10 nM LY294002, with or without adiponectin; n=4 per group
Procedure: Mouse livers were perfused with a Krebs-Ringer-HEPES buffer containing collagenase (Sigma-Aldrich). Livers were isolated and cells were dispersed by gentle shaking and filtered through sterile nylon gauze. Cells were washed twice with sterile phosphate-buffered saline and purified by centrifugation in 50% isotonic Percoll (Sigma-Aldrich). Cells were resuspended with Krebs-Ringer-HEPES+Ca^2+ buffer to a total volume of 10 ml. Viability was validated via trypan blue exclusion and routinely exceeded 90%. Freshly isolated mouse hepatocytes were plated at 10^5 cells per well in 12-well culture plates coated with rat tail collagen I (BD Biosciences). […] SOGA siRNA, AICAR (500 μM) or […] (10 nM) were introduced to the media 48 hours before the measurement of glucose production. siRNA sequences corresponding to base pairs 333-351 and 1988-2007 on the open reading frame of murine SOGA were selected using a rational design algorithm (Invitrogen). […] Glucose was measured by colorimetric assay (Autokit Glucose CII) (Brooks et al., J. Biol. Chem. 282:35069 (2007)). Valine in the medium was measured by a UPLC (Waters) coupled TSQ-Quantum ultra triple quad mass analyzer (ThermoFinigan) in the Biomarkers Facility Core at UNC. Valine was measured in selected reaction monitoring mode (SRM) using the MS/MS transition of 118→72.

C57B1 mice = test: Rapamycin fed C57B1 mice, western blot and densitometry of plasma adiponectin and SOGA; type: in vivo, mouse
ob/ob mice = test: Pioglitazone treatment of diabetic ob/ob mice; type: in vivo, mouse; details: ob/ob mice on pioglitazone compared to controls
Procedure: Mice were housed in ventilated isolator cage systems in a pathogen-free barrier facility maintained at 23° C., 55% humidity on a 12-h light/12-h dark cycle. Mice received a standard chow diet consisting of 73% carbohydrate, 18% protein, 4% fat and 5% ash (Purina). Young (3-6 month old) female C57B1/6J calorie restricted (CR) and ad libitum fed (AL) mice were maintained as previously described (Combs et al., Diabetes 52:268 (2003)). Adjustments were made to ensure that CR mice received 70% of the ad libitum food intake. Blood samples were collected at 1300 from the tail tip using heparinized capillary tubes (Fisher) and stored at −20° C. Male ob/ob mice (FVB background strain) received a daily dose of pioglitazone at 0.6 mg/kg BW in 0.025% (w/w) carboxymethylcellulose by oral gavage for 4 days. Control mice received carboxymethylcellulose by oral gavage for 4 days. Blood was collected from the tail tip on day 5 and analyzed for glucose, adiponectin and 25 kDa SOGA. Immediately after the collection of blood samples, ob/ob mice were sacrificed by cervical dislocation for tissue collection. Northern blot analysis for SOGA mRNA and 18S RNA was performed using 20 μg of liver RNA. NOD mice were bred and housed as previously described (Wong et al., J. Immunol. 176:1637 (2006)). […] Glucose was measured by colorimetric assay. Adiponectin and SOGA were measured by SDS-PAGE analysis using 1 μl of plasma. […]

## O=c1cc(N2CCOCC2)oc2c(-c3ccccc3)cccc12 [LY294002]
SOGA
  effect on SOGA level (intracellular and extracellular): decrease in SOGA that was not blocked by adiponectin

## CO[C@H]1C[C@@H]2CC[C@@H](C)[C@@](O)(O2)C(=O)C(=O)N2CCCC[C@H]2C(=O)O[C@H]([C@H](C)C[C@@H]2CC[C@@H](O)[C@H](OC)C2)CC(=O)[C@H](C)/C=C(\C)[C@@H](O)[C@@H](OC)C(=O)[C@H](C)C[C@H](C)/C=C/C=C/C=C/1C [rapamycin]
C57B1 mice; rapamycin fed mice compared to controls, P<0.05
  SOGA (western blot and densitometry): decreased
C57B1 mice; rapamycin fed mice, summary statement
  adiponectin: suppressed

## CCc1ccc(CCOc2ccc(CC3SC(=O)NC3=O)cc2)nc1 (centres unmarked) [Pioglitazone, pioglitazone]
ob/ob mice
  SOGA (western blot and densitometry): increased
  adiponectin (western blot and densitometry): increased
